Reference: the supplement of paper PMC6411743
± gives the standard deviation of the averaged measurements. The list shows a part of the results, in another mix than the full data.

Assays:
Assay in all cases: NP40-soluble protein abundance relative to vehicle (solubility fold change) (ratio); higher = more soluble protein in presence of ATP
[1] = molecular target: T1, A0A0A0MSG2|J3KNW4 and related entries (UniProt Q14192)
T1 sequence (whole entry): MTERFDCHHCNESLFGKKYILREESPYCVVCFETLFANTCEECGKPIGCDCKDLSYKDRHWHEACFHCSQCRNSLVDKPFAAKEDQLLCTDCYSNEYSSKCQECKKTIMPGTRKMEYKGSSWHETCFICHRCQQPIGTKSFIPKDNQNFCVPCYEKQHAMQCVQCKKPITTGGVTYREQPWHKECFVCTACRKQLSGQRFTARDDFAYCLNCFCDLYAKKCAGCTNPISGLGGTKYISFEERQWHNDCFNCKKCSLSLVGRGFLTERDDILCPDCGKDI
Outline: (§1)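 Crude Jurkat lysate, prepared by Dounce homogenisation, was exposed to eight concentrations from 0.1 to 10 mM for 10 min at room temperature and then 3 min at 37 °C. Solubilisation used 0.8% NP40 with benzonase for 60 min at 4 °C, followed by ultracentrifugation and TMT labelling of the supernatant for LC-MS/MS. After vsn normalisation of intensities, each value is the fold change against the detergent-processed vehicle within each replicate, across three independent experiments.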

[2] = molecular target: T2, A0A0A0MT33|Q9UPN6 (UniProt Q9UPN6)
T2 sequence (whole entry): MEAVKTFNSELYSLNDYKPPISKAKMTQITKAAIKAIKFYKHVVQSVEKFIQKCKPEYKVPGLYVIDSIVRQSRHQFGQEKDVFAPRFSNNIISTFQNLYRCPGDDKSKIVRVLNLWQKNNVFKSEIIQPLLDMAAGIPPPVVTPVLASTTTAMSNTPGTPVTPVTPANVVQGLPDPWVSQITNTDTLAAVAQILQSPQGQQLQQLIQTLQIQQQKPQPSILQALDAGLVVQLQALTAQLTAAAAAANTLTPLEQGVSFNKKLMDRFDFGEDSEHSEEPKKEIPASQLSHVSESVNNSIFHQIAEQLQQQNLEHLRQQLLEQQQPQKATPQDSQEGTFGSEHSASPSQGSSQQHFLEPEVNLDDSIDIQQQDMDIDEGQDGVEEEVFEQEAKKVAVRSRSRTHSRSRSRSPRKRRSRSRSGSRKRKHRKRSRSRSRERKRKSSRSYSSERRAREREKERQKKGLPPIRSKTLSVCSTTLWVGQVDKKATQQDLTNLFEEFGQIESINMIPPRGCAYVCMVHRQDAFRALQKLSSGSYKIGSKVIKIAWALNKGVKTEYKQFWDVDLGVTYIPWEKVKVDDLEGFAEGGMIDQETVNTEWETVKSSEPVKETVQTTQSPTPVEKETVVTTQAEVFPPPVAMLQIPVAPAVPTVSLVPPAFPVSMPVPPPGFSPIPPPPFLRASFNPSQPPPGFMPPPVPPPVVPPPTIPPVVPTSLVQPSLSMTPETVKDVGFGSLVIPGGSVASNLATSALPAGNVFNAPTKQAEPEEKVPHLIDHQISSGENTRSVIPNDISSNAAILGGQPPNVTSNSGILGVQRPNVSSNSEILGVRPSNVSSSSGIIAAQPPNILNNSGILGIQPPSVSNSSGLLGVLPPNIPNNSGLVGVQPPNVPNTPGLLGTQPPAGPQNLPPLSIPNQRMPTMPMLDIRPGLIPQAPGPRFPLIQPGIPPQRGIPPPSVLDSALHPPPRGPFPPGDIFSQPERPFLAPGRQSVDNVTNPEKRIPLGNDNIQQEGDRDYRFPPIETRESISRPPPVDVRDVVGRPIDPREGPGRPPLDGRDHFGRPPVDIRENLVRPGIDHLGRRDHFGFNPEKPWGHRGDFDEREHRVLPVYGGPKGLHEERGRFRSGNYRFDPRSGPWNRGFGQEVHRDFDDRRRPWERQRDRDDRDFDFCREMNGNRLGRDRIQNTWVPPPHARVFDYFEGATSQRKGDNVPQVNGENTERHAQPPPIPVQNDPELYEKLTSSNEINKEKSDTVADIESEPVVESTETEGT
Outline: as §1

[3] = molecular target: T3, A0A0A0MTG4|P82094 (UniProt P82094)
T3 sequence (whole entry): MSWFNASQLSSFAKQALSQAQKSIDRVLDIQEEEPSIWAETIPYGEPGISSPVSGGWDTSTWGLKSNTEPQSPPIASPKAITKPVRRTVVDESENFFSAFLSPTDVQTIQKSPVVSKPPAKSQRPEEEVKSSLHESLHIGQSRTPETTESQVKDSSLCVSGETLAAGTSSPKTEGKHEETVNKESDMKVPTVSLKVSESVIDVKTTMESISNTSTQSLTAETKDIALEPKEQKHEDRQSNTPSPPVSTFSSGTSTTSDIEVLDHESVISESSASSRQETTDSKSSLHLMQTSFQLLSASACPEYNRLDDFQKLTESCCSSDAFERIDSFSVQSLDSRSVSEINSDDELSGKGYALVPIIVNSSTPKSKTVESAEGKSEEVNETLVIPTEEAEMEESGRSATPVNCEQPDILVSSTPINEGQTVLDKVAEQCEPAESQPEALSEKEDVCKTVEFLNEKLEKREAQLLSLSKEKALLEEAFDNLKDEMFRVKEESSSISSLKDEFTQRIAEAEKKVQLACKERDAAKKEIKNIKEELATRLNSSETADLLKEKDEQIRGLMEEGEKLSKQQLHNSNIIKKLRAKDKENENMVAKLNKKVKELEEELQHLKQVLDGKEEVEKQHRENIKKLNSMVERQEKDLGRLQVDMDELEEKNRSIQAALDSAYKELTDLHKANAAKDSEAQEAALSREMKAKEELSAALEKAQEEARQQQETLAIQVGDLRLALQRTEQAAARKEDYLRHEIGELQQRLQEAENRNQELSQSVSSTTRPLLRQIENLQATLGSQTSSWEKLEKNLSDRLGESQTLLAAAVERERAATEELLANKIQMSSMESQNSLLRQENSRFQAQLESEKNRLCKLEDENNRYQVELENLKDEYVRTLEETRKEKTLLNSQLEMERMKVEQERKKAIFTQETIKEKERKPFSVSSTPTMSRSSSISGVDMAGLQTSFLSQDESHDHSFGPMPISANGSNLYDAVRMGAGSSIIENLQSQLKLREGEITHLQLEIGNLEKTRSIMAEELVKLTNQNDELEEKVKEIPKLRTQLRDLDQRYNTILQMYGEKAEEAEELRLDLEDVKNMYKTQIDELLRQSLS
Outline: as §1

[4] = molecular target: T4, A0A0A6YY96|P48200 (UniProt P48200)
T4 sequence (whole entry): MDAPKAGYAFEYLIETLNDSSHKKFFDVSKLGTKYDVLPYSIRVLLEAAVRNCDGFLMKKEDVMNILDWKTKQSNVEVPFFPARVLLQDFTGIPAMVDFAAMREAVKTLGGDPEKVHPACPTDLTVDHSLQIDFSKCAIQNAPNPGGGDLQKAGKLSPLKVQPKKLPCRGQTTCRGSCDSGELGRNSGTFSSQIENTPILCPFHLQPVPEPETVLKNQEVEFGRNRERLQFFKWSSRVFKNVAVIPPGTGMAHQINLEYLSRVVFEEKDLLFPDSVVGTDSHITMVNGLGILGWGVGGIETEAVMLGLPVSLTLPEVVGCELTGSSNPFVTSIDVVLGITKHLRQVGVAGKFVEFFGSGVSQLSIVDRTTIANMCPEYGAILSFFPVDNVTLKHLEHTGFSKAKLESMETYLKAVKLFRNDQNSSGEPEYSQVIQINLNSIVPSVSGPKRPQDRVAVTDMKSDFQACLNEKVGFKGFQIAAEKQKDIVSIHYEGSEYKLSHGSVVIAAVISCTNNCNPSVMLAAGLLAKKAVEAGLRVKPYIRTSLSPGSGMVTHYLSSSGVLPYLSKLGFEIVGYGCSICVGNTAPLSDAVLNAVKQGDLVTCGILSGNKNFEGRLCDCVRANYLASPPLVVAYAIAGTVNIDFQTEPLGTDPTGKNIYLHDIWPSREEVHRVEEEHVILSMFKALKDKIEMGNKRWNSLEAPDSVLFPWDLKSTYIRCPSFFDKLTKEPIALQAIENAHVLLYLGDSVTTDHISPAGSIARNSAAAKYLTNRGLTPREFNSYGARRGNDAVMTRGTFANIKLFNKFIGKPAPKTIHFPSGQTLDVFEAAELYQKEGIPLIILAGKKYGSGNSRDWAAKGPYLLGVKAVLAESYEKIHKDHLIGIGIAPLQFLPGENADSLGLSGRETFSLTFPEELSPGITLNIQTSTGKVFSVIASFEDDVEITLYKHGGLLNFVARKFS
Outline: as §1

[5] = molecular target: T5, A0A0A6YYL4|P57737-3|P57737-4 (UniProt P57737)
T5 sequence (whole entry): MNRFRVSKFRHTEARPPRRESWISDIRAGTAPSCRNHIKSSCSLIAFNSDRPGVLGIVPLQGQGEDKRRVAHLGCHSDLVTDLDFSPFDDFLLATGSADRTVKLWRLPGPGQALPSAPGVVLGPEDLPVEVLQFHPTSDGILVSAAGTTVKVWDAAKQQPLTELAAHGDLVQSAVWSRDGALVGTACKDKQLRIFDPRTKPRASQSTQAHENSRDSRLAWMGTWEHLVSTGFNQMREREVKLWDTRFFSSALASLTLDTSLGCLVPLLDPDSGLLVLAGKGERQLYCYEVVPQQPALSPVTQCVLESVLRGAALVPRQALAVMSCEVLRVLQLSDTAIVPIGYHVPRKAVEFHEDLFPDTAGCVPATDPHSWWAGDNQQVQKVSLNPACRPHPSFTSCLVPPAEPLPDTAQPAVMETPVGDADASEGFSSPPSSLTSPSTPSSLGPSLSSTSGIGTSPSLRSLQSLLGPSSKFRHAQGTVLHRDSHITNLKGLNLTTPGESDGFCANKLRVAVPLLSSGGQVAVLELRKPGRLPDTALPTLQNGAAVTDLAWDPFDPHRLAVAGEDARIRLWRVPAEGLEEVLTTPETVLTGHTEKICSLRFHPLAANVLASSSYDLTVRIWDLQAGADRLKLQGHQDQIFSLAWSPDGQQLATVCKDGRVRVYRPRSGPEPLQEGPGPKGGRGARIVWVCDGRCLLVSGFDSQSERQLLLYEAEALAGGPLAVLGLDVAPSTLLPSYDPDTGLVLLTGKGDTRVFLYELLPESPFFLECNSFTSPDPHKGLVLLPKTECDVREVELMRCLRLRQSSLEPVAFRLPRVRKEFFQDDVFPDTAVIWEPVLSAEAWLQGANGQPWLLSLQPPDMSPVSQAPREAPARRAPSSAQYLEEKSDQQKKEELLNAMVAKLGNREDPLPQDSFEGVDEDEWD
Outline: as §1

## Nc1ncnc2c1ncn2[C@@H]1O[C@H](COP(=O)(O)OP(=O)(O)OP(=O)(O)O)[C@@H](O)[C@H]1O [adenosine triphosphate]
[1]; concentration: 1mM
  NP40-soluble protein abundance: 1.05 ± 0.0076
[1]; concentration: 2mM
  NP40-soluble protein abundance: 1.1 ± 0.1
[1]; concentration: 4mM
  NP40-soluble protein abundance: 1.07 ± 0.087
[1]; concentration: 6mM
  NP40-soluble protein abundance: 1.07 ± 0.019
[1]; concentration: 8mM
  NP40-soluble protein abundance: 1.14 ± 0.029
[1]; concentration: 10mM
  NP40-soluble protein abundance: 1.08 ± 0.037
[2]; concentration: 1mM
  NP40-soluble protein abundance: 1.03 ± 0.063
[2]; concentration: 2mM
  NP40-soluble protein abundance: 1.07 ± 0.022
[2]; concentration: 4mM
  NP40-soluble protein abundance: 1.03 ± 0.031
[2]; concentration: 6mM
  NP40-soluble protein abundance: 1.1 ± 0.086
[2]; concentration: 8mM
  NP40-soluble protein abundance: 1.06 ± 0.031
[2]; concentration: 10mM
  NP40-soluble protein abundance: 1.05 ± 0.023
[3]; concentration: 1mM
  NP40-soluble protein abundance: 0.944 ± 0.042
[3]; concentration: 2mM
  NP40-soluble protein abundance: 0.944 ± 0.027
[3]; concentration: 4mM
  NP40-soluble protein abundance: 0.959 ± 0.017
[3]; concentration: 6mM
  NP40-soluble protein abundance: 0.99 ± 0.029
[3]; concentration: 8mM
  NP40-soluble protein abundance: 0.933 ± 0.014
[3]; concentration: 10mM
  NP40-soluble protein abundance: 0.9393 ± 0.0069
[4]; concentration: 1mM
  NP40-soluble protein abundance: 1.06 ± 0.092
[4]; concentration: 2mM
  NP40-soluble protein abundance: 1.04 ± 0.047
[4]; concentration: 4mM
  NP40-soluble protein abundance: 1.04 ± 0.081
[4]; concentration: 6mM
  NP40-soluble protein abundance: 1.07 ± 0.034
[4]; concentration: 8mM
  NP40-soluble protein abundance: 1.03 ± 0.065
[4]; concentration: 10mM
  NP40-soluble protein abundance: 1.05 ± 0.14
[5]; concentration: 1mM
  NP40-soluble protein abundance: 0.999 ± 0.014
[5]; concentration: 2mM
  NP40-soluble protein abundance: 0.981 ± 0.017
[5]; concentration: 4mM
  NP40-soluble protein abundance: 0.969 ± 0.011
